# Results published in the supplement of paper PMC12067093, “Discovery and optimisation of a covalent ligand for TRIM25 and its application to targeted protein ubiquitination” (Chemical Science, 2025).
# The other results are listed elsewhere or left out.
# Compound: Cc1cc(ccc1-c1ccccc1)C(=O)N1CCCN(CC1)C(=O)CCl [compound 10]
# Assay: probe-labelled cysteine peptide fold change vs DMSO (competition) (log2 fold change); higher = less target engagement (more negative = stronger competition)
# Settings: 50 µM; THP-1; incubation time: 4 h
# 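Note: competitive profiling in live THP-1 cells: cysteine peptides tagged with an iodoacetamide desthiobiotin (IA-DTB) probe, intensity after compound treatment relative to DMSO-treated cells.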
row,Target,probe-labelled cysteine peptide fold change
1,BABAM2_Q9NXR7_254_IEHALGGSSALHIPAFPGGGCLIDYVPQVCHLLTNK (UniProt Q9NXR7),0.123
2,ATXN2_Q99700_852_DSFIENSSSNCTSGSSKPNSPSISPSILSNTEHK (UniProt Q99700),-0.254
3,BLMH_Q13867_326_DGEAVWFGCDVGK (UniProt Q13867),-0.0318
4,BAZ1B_Q9UIG0_1435_TEQCLVALLHK (UniProt Q9UIG0),-0.0339
5,AURKB_Q96GD4_191_TATIMEELADALMYCHGK (UniProt Q96GD4),0.142
6,BAZ1A_Q9NRL2_764_QEQINCVTREPLTADEEEALKQEHQR (UniProt Q9NRL2),-1.01
7,BAZ1B_Q9UIG0_1348_CEEILHK (UniProt Q9UIG0),0.0263
8,AZU1_P20160_68_FVMTAASCFQSQNPGVSTVVLGAYDLR (UniProt P20160),0.337
9,AZU1_P20160_207_RGGICNGDGGTPLVCEGLAHGVASFSLGPCGR (UniProt P20160),0.156
10,BABAM2_Q9NXR7_129_ELVQQYHQFQCSR (UniProt Q9NXR7),0.207
11,ATXN2_Q99700_556_VVNGGVPWPSPCPSPSSRPPSR (UniProt Q99700),-0.419
12,AZI2_Q9H6S1_10_MDALVEDDICILNHEK (UniProt Q9H6S1),-0.235
13,BANK1_Q8NDB2_349_ELPTLLHCAAK (UniProt Q8NDB2),-0.0376
14,BAG1_Q99933_213_EMETPLSALGIQDGCR (UniProt Q99933),-0.287
15,BMP2K_Q9NSY1_160_LQTGFTEPEVLQIFCDTCEAVAR (UniProt Q9NSY1),0.362
16,BLVRB_P30043_109_VVACTSAFLLWDPTK (UniProt P30043),0.519
17,BCAR1_P56945_46_KGDIMTVLEQDTQGLDGWWLCSLHGR (UniProt P56945),-0.0071
18,AUP1_Q9Y679_124_VLISNHVTPFDHNIVNLLTTCSTPLLNSPPSFVCWSR (UniProt Q9Y679),-0.0869
19,AVL9_Q8NBF6_119_SVCVLSK (UniProt Q8NBF6),0.11

row,Target,probe-labelled cysteine peptide fold change
1,BAZ2A_Q9UIF9_1697_GDNDEFLLLCDGCDR (UniProt Q9UIF9),-0.246
2,BAZ1A_Q9NRL2_404_PREDMECDDLK (UniProt Q9NRL2),-0.169
3,BLVRA_P53004_204_MTVCLETEKK (UniProt P53004),-0.376
4,BOD1L1_Q8NFC6_1554_QSEVALPCTSIEADEGLIIGTHSR (UniProt Q8NFC6),-0.0106
5,BCKDHB_P21953_228_GLLLSCIEDK (UniProt P21953),0.0771
6,BOD1L1_Q8NFC6_2164_CAESLQPVAAAVEER (UniProt Q8NFC6),-0.0846
7,B4GALT1_P15291_262_CFSQPR (UniProt P15291),-0.0791
8,BAZ1A_Q9NRL2_799_IQSAIACTNIFPLGR (UniProt Q9NRL2),0.166
9,BIRC6_Q9NR09_566_HQEQHNIPFPCLLAGGLLTYK (UniProt Q9NR09),-0.0756
10,BCAP29_Q9UHQ4_171_SHGKDEECVLEAENK (UniProt Q9UHQ4),-0.347
11,BIN2_Q9UBW5_205_IGCYVTIFQNISNLR (UniProt Q9UBW5),0.512
12,BAG2_O95816_142_SHLMSLYSACSSEVPHGPVDQK (UniProt O95816),0.256
13,BIN2_Q9UBW5_496_ENENIHNQNPEELCTSPTLMTSQVASEPGEAK (UniProt Q9UBW5),-0.541
14,BLNK_Q8WV28_271_TTPVASQQNASSVCEEKPIPAER (UniProt Q8WV28),-0.34
15,AZU1_P20160_222_RGGICNGDGGTPLVCEGLAHGVASFSLGPCGR (UniProt P20160),-0.157
16,BRAP_Q7Z569_264_CTVCLER (UniProt Q7Z569),-0.0218
17,BAHD1_Q8TBE0_598_TNGWVPVGAACEK (UniProt Q8TBE0),0.181
18,BOP1_Q14137_620_LMPNCK (UniProt Q14137),-0.106
19,BAZ1B_Q9UIG0_497_SALSCVISK (UniProt Q9UIG0),-0.393

# Pulled one by one from above, 2 records:
row,Target,probe-labelled cysteine peptide fold change
9,AZU1_P20160_207_RGGICNGDGGTPLVCEGLAHGVASFSLGPCGR (UniProt P20160),0.156
7,B4GALT1_P15291_262_CFSQPR (UniProt P15291),-0.0791
